PubChem BioAssay AID1259424, University of Nebraska Medical Center | 2018
The whole screen tested about 14,000 reagents; shown is an unselected part. 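Higher correlation or smaller distance means closer resemblance to KSR1 loss; control wells, including KSR1 knockdowns, recur on many plates.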 Reagent sequences are not shown. Not stated in the record: the time to read-out.

Purpose: 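Rank knockdowns across the genome by resemblance to the KSR1 depletion profile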 (primary screen)
System: human HCT116 colon cancer cells
Reagent: siRNA pool against human genes, 50 nM
Measured: 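Log2 levels of six mRNAs (branched-DNA multiplex), adjusted by two reference genes and the non-targeting median, then scored against the average KSR1 knockdown pattern as Pearson r and euclidean distance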
Reading the numbers: mean correlation with KSR1 profile and KSR1 correlation: higher = expression change more like KSR1 knockdown; mean distance from KSR1 profile: higher = expression change less like KSR1 knockdown

| Gene | mean correlation with KSR1 profile | mean distance from KSR1 profile | KSR1 correlation, replicate 1 | KSR1 correlation, replicate 2 | KSR1 correlation, replicate 3 |
| --- | --- | --- | --- | --- | --- |
| PRX (GeneID 57716) | 0.693 | 1.42 | 0.694 | 0.624 | 0.68 |
| PRPF8 (GeneID 10594) | 0.291 | 1.91 | -0.44 | 0.393 | 0.0307 |
| SETD2 (GeneID 29072) | -0.0708 | 1.28 | -0.157 | 0.0156 | -0.0941 |
| SPAG9 (GeneID 9043) | -0.556 | 3.35 | -0.484 | -0.618 | -0.501 |
| FBXL15 (GeneID 79176) | 0.675 | 2.56 | 0.438 | 0.311 | 0.701 |
| ITGB4 (GeneID 3691) | -0.146 | 2.24 | -0.216 | -0.161 | -0.0497 |
| NUDCD3 (GeneID 23386) | 0.38 | 2.52 | 0.515 | 0.166 | 0.357 |
| SMAD5 (GeneID 4090) | -0.423 | 2.81 | -0.425 | -0.443 | -0.446 |
| AIRE (GeneID 326) | -0.0135 | 3.16 | 0.0863 | 0.41 | 0.038 |
| LARP1B (GeneID 55132) | -0.174 | 2.27 | -0.199 | -0.189 | -0.212 |
| MTUS2 (GeneID 23281) | -0.0935 | 1.03 | 0.152 | -0.202 | -0.0851 |
| CCS (GeneID 9973) | -0.196 | 2.78 | -0.141 | -0.082 | -0.562 |
| MFAP2 (GeneID 4237) | 0.105 | 1.49 | -0.0843 | 0.00696 | 0.239 |
| PSMA5 (GeneID 5686) | 0.0369 | 5.42 | 0.151 | -0.0746 | 0.023 |
| POLR1G (GeneID 10849) | -0.376 | 2.44 | -0.07 | -0.416 | -0.49 |
| SSH3 (GeneID 54961) | -0.569 | 2.5 | -0.359 | -0.909 | -0.471 |
| RFX7 (GeneID 64864) | 0.131 | 2.05 | 0.0864 | -0.0496 | 0.159 |
| TCEAL4 (GeneID 79921) | 0.528 | 1.27 | 0.572 | 0.652 | 0.386 |
| MMP1 (GeneID 4312) | 0.163 | 1.93 | 0.207 | 0.218 | -0.353 |
| SUMO3 (GeneID 6612) | -0.37 | 2.08 | -0.131 | -0.553 | -0.241 |

In a second layout: entries from further up
LARP1B (GeneID 55132)
- mean correlation with KSR1 profile: -0.174
- mean distance from KSR1 profile: 2.27
- KSR1 correlation, replicate 1: -0.199
- KSR1 correlation, replicate 2: -0.189
- KSR1 correlation, replicate 3: -0.212

MTUS2 (GeneID 23281)
- mean correlation with KSR1 profile: -0.0935
- mean distance from KSR1 profile: 1.03
- KSR1 correlation, replicate 1: 0.152
- KSR1 correlation, replicate 2: -0.202
- KSR1 correlation, replicate 3: -0.0851

CCS (GeneID 9973)
- mean correlation with KSR1 profile: -0.196
- mean distance from KSR1 profile: 2.78
- KSR1 correlation, replicate 1: -0.141
- KSR1 correlation, replicate 2: -0.082
- KSR1 correlation, replicate 3: -0.562
